Experimental data: PMC2807035
Results are given in words; binding and its absence hold for the method and conditions named. Tags and fused reporters may be left off the sequences shown.

Target: DS domain of human DDR2 (His-tagged, residues 26-190) (human) (UniProt Q16832)
Assay: SEC; analytical size exclusion chromatography, 24 ml Superdex 75, 20 mM MES, 100 mM NaCl pH 6.5; 16 nmol DS domain in PBS alone or mixed with varying amounts of collagen peptide (two-fold molar excess for the complex), incubated 30 min in 0.5 ml; both purified

binding: no binding
B1: DS domain of human DDR2 (His-tagged, residues 26-190) (domain or fragment, UniProt Q16832 26-190)
chain: NPAICRYPLGMSGGQIPDEDITASSQWSESTAAKYGRLDSEEGDGAWCPEIPVEPDDLKEFLQIDLHTLHFITLVGTQGRHAGGHGIEFAPMYKINYSRDGTRWISWRNRHGKQVLDGNSNPYDIFLKDLEPPIVARFVRFIPVTDHSMNVCMRVELYGCVWLDG
